Some results were stated once for a whole list of compounds, not compound by compound. At least one structure is not confirmed: it was looked up by name or label, or the drawing left a doubt.
What follows are compounds tested on HeLa-C3 cells (assay: Apoptosis-inducing effect: caspase-3 activation, YFP/CFP emission ratio (FRET biosensor) in HeLa-C3 cells). Details: within 72 h at 100 μM, 50 μM and 25 μM.
Type: cell-based
Protocol: The biological activity of Compounds 1-4 was evaluated for apoptosis-inducing effects using genetically engineered HeLa-C3 cells that can produce a fluorescent biosensor capable of detecting caspase-3 activation. These cells emit a green light under normal growth conditions and change to a blue light when caspase-3 is activated during apoptosis to cleave the sensor protein inside the cells. This color change allows one to use a fluorescent plate reader to directly detect the activation level of caspase-3 in HeLa-C3 cells during the course of the compound treatment in a noninvasive way. Based on our previous test results, the emission ratio of YFP (yellow fluorescent protein)/CFP (cyanfluorescent proteins) is usually between 6 and 8 in normal cells, and this ratio will decrease to a value below 3 if a compound can activate caspase-3 and kill cancer cells. Therefore, any compound that can reduce the YFP/CFP emission ratio to a value below 3 is considered positive in activating apoptosis.
Bioassay: The bioassay method was described in our previous paper with some modifications. All the testing samples were dissolved in DMSO to make stock solutions. The concentration of each stock was at least 1000 times higher than the working concentration. […] After that, the plate was read repeatedly by a Perkin-Elmer Victor reader with excitation wavelength at 440±10 nm and emission wavelength at 486±8 nm for CFP (cyan fluorescent protein) and 535±8 nm for YFP (yellow fluorescent protein) at indicated time points. […] The YFP/CFP emission ratio was then calculated. The background fluorescence was measured from the wells containing only medium. After subtracting the background fluorescence from the recorded signal, net YFP and CFP readings were obtained. In this paper, Y/C emission ratio is used to represent the effect of FRET, which is equal to the net YFP reading divided by the net CFP reading from the same well. […]

Row | Compound | YFP/CFP emission ratio
1 | CC(C)=CC[C@H]1C[C@@]23CC4(CCC(C)(C)C[C@]4(C)O)OC2=C(C(=O)c2ccc(O)c(O)c2)C(=O)[C@](CC=C(C)C)(C3=O)C1(C)C (relative stereo) [Compound 1, Paucinone A] | below 3
2 | CC(C)=CC[C@H]1C[C@@]23CC4(CCC(C)(C)C[C@@]4(C)O)OC2=C(C(=O)c2ccc(O)c(O)c2)C(=O)[C@](CC=C(C)C)(C3=O)C1(C)C (relative stereo) [Compound 2, Paucinone B] | below 3
3 | C=C1CCCC(C)(C)[C@H]1C[C@H]1C[C@@]23CC(C(C)(C)O)OC2=C(C(=O)c2ccc(O)c(O)c2)C(=O)[C@](CC=C(C)C)(C3=O)C1(C)C (relative stereo) [Compound 4, Paucinone D] | below 3
